Data as given in PubChem BioAssay AID1259308 (NCATS, 2017)

Screen: 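Knock-downs that increase output of a recombinant reporter protein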 (primary screen)
Cells: human HEK293 embryonic kidney cells stably expressing firefly luciferase (HEK-CMV-Luc2-Hygro)
Reagent: single siRNA against human genes, 0.8 pmol siRNA per well
Duration: 72 h
Measurement: 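Luciferase light (ONE-Glo) measured on one replicate plate set and viability (CellTiter-Glo) on the other, scaled to a negative control siRNA, with robust z-scores and luciferase per cell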
Direction: total luciferase, z-score and total luciferase, % of control: higher = more reporter protein produced
Rule for the call: 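Active when the median/MAD z-score for overall luciferase is greater than 3; a gene was taken forward for validation with new siRNAs if at least two of its three siRNAs passed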
Meaning of the calls: active = raised luciferase; inactive = no rise
The deposit covers about 59,000 reagents; shown is a random part of them. Of all reagents, about 1,510 (2.6%) were called active. 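Calls use total luciferase alone and ignore viability, so some active siRNAs may act by altering cell number.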 The numbers tell different reagents against one gene apart. Not all columns of the deposit are shown. Reagent sequences are not shown.

{"Target gene": "AASDH (GeneID 132949)", "siRNA no.": 1, "total luciferase, z-score": 0.079, "total luciferase, % of control": 83.5, "Outcome": "inactive"}
{"Target gene": "AASDH (GeneID 132949)", "siRNA no.": 2, "total luciferase, z-score": -0.387, "total luciferase, % of control": 74.2, "Outcome": "inactive"}
{"Target gene": "AASDH (GeneID 132949)", "siRNA no.": 3, "total luciferase, z-score": 0.385, "total luciferase, % of control": 89.5, "Outcome": "inactive"}
{"Target gene": "KCNC2 (GeneID 3747)", "siRNA no.": 1, "total luciferase, z-score": -1.3, "total luciferase, % of control": 56.1, "Outcome": "inactive"}
{"Target gene": "KCNC2 (GeneID 3747)", "siRNA no.": 2, "total luciferase, z-score": -0.722, "total luciferase, % of control": 67.5, "Outcome": "inactive"}
{"Target gene": "KCNC2 (GeneID 3747)", "siRNA no.": 3, "total luciferase, z-score": -2.39, "total luciferase, % of control": 34.3, "Outcome": "inactive"}
{"Target gene": "OR5F1 (GeneID 338674)", "siRNA no.": 1, "total luciferase, z-score": -0.671, "total luciferase, % of control": 68.5, "Outcome": "inactive"}
{"Target gene": "OR5F1 (GeneID 338674)", "siRNA no.": 2, "total luciferase, z-score": -0.729, "total luciferase, % of control": 67.4, "Outcome": "inactive"}
{"Target gene": "OR5F1 (GeneID 338674)", "siRNA no.": 3, "total luciferase, z-score": -0.297, "total luciferase, % of control": 76, "Outcome": "inactive"}
{"Target gene": "RPL23AP14 (GeneID 341511)", "siRNA no.": 1, "total luciferase, z-score": -0.729, "total luciferase, % of control": 67.4, "Outcome": "inactive"}
{"Target gene": "RPL23AP14 (GeneID 341511)", "siRNA no.": 2, "total luciferase, z-score": 0.845, "total luciferase, % of control": 98.7, "Outcome": "inactive"}
{"Target gene": "RPL23AP14 (GeneID 341511)", "siRNA no.": 3, "total luciferase, z-score": -2.52, "total luciferase, % of control": 31.8, "Outcome": "inactive"}
{"Target gene": "PLEKHB2 (GeneID 55041)", "siRNA no.": 1, "total luciferase, z-score": 0.406, "total luciferase, % of control": 90, "Outcome": "inactive"}
{"Target gene": "PLEKHB2 (GeneID 55041)", "siRNA no.": 2, "total luciferase, z-score": 0.206, "total luciferase, % of control": 86, "Outcome": "inactive"}
{"Target gene": "PLEKHB2 (GeneID 55041)", "siRNA no.": 3, "total luciferase, z-score": 1.31, "total luciferase, % of control": 108, "Outcome": "inactive"}
{"Target gene": "RNF17 (GeneID 56163)", "siRNA no.": 1, "total luciferase, z-score": 0.148, "total luciferase, % of control": 84.8, "Outcome": "inactive"}
{"Target gene": "RNF17 (GeneID 56163)", "siRNA no.": 2, "total luciferase, z-score": 0.59, "total luciferase, % of control": 93.6, "Outcome": "inactive"}
{"Target gene": "RNF17 (GeneID 56163)", "siRNA no.": 3, "total luciferase, z-score": -1.75, "total luciferase, % of control": 47, "Outcome": "inactive"}
{"Target gene": "NUMB (GeneID 8650)", "siRNA no.": 1, "total luciferase, z-score": -0.18, "total luciferase, % of control": 78.3, "Outcome": "inactive"}
{"Target gene": "NUMB (GeneID 8650)", "siRNA no.": 2, "total luciferase, z-score": -0.361, "total luciferase, % of control": 74.7, "Outcome": "inactive"}
{"Target gene": "NUMB (GeneID 8650)", "siRNA no.": 3, "total luciferase, z-score": 0.406, "total luciferase, % of control": 90, "Outcome": "inactive"}
{"Target gene": "MTSS2 (GeneID 92154)", "siRNA no.": 1, "total luciferase, z-score": 1.75, "total luciferase, % of control": 117, "Outcome": "inactive"}
{"Target gene": "MTSS2 (GeneID 92154)", "siRNA no.": 2, "total luciferase, z-score": -0.475, "total luciferase, % of control": 72.4, "Outcome": "inactive"}
{"Target gene": "MTSS2 (GeneID 92154)", "siRNA no.": 3, "total luciferase, z-score": 0.324, "total luciferase, % of control": 88.3, "Outcome": "inactive"}
{"Target gene": "PSPC1 (GeneID 55269)", "siRNA no.": 1, "total luciferase, z-score": 0.951, "total luciferase, % of control": 101, "Outcome": "inactive"}
{"Target gene": "PSPC1 (GeneID 55269)", "siRNA no.": 2, "total luciferase, z-score": 1.94, "total luciferase, % of control": 120, "Outcome": "inactive"}
{"Target gene": "PSPC1 (GeneID 55269)", "siRNA no.": 3, "total luciferase, z-score": -0.256, "total luciferase, % of control": 76.8, "Outcome": "inactive"}
{"Target gene": "CDYL (GeneID 9425)", "siRNA no.": 1, "total luciferase, z-score": 1.5, "total luciferase, % of control": 112, "Outcome": "inactive"}
{"Target gene": "CDYL (GeneID 9425)", "siRNA no.": 2, "total luciferase, z-score": 0.726, "total luciferase, % of control": 96.3, "Outcome": "inactive"}
{"Target gene": "CDYL (GeneID 9425)", "siRNA no.": 3, "total luciferase, z-score": -1.14, "total luciferase, % of control": 59.2, "Outcome": "inactive"}
{"Target gene": "HOXD10 (GeneID 3236)", "siRNA no.": 1, "total luciferase, z-score": 0.0507, "total luciferase, % of control": 82.9, "Outcome": "inactive"}
{"Target gene": "HOXD10 (GeneID 3236)", "siRNA no.": 2, "total luciferase, z-score": 1.22, "total luciferase, % of control": 106, "Outcome": "inactive"}
{"Target gene": "HOXD10 (GeneID 3236)", "siRNA no.": 3, "total luciferase, z-score": 0.00208, "total luciferase, % of control": 81.9, "Outcome": "inactive"}
{"Target gene": "OPCML (GeneID 4978)", "siRNA no.": 1, "total luciferase, z-score": 3.27, "total luciferase, % of control": 147, "Outcome": "active"}
{"Target gene": "OPCML (GeneID 4978)", "siRNA no.": 2, "total luciferase, z-score": -1.06, "total luciferase, % of control": 60.9, "Outcome": "inactive"}
{"Target gene": "OPCML (GeneID 4978)", "siRNA no.": 3, "total luciferase, z-score": 0.845, "total luciferase, % of control": 98.7, "Outcome": "inactive"}
{"Target gene": "CLSTN1 (GeneID 22883)", "siRNA no.": 1, "total luciferase, z-score": -0.204, "total luciferase, % of control": 77.8, "Outcome": "inactive"}
{"Target gene": "CLSTN1 (GeneID 22883)", "siRNA no.": 2, "total luciferase, z-score": -0.397, "total luciferase, % of control": 74, "Outcome": "inactive"}
{"Target gene": "CLSTN1 (GeneID 22883)", "siRNA no.": 3, "total luciferase, z-score": -0.451, "total luciferase, % of control": 72.9, "Outcome": "inactive"}
{"Target gene": "CPS1 (GeneID 1373)", "siRNA no.": 1, "total luciferase, z-score": 1.16, "total luciferase, % of control": 105, "Outcome": "inactive"}
{"Target gene": "CPS1 (GeneID 1373)", "siRNA no.": 2, "total luciferase, z-score": -0.0256, "total luciferase, % of control": 81.4, "Outcome": "inactive"}
{"Target gene": "CPS1 (GeneID 1373)", "siRNA no.": 3, "total luciferase, z-score": -0.375, "total luciferase, % of control": 74.4, "Outcome": "inactive"}

7 entries from above, sorted by “total luciferase, z-score”, ascending:
{"Target gene": "RNF17 (GeneID 56163)", "siRNA no.": 3, "total luciferase, z-score": -1.75, "total luciferase, % of control": 47, "Outcome": "inactive"}
{"Target gene": "NUMB (GeneID 8650)", "siRNA no.": 2, "total luciferase, z-score": -0.361, "total luciferase, % of control": 74.7, "Outcome": "inactive"}
{"Target gene": "NUMB (GeneID 8650)", "siRNA no.": 1, "total luciferase, z-score": -0.18, "total luciferase, % of control": 78.3, "Outcome": "inactive"}
{"Target gene": "RNF17 (GeneID 56163)", "siRNA no.": 1, "total luciferase, z-score": 0.148, "total luciferase, % of control": 84.8, "Outcome": "inactive"}
{"Target gene": "NUMB (GeneID 8650)", "siRNA no.": 3, "total luciferase, z-score": 0.406, "total luciferase, % of control": 90, "Outcome": "inactive"}
{"Target gene": "RNF17 (GeneID 56163)", "siRNA no.": 2, "total luciferase, z-score": 0.59, "total luciferase, % of control": 93.6, "Outcome": "inactive"}
{"Target gene": "PLEKHB2 (GeneID 55041)", "siRNA no.": 3, "total luciferase, z-score": 1.31, "total luciferase, % of control": 108, "Outcome": "inactive"}
